Results on two molecules are retold here after paper PMC7346058.

The chains behind the UniProt entries cited, without tags or fusion partners.
UniProt Q99459: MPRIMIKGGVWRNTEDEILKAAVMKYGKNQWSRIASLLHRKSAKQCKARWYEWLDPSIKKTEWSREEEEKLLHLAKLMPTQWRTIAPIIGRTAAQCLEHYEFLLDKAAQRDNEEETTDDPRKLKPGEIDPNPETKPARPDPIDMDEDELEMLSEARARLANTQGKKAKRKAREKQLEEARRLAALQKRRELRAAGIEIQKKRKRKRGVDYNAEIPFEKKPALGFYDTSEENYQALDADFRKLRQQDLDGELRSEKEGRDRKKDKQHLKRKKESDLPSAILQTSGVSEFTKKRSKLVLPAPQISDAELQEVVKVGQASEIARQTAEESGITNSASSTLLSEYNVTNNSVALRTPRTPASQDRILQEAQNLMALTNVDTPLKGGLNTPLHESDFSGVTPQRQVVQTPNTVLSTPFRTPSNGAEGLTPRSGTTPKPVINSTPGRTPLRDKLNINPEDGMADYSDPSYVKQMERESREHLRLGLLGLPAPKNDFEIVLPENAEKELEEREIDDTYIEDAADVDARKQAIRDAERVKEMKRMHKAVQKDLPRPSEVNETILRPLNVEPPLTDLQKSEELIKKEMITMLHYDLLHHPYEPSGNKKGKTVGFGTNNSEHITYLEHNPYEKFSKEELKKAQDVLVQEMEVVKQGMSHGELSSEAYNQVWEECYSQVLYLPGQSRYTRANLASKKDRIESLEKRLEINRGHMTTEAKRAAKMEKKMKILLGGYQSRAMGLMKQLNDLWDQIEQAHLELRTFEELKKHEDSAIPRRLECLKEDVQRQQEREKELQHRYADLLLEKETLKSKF

For assay [1], the target named is T1, annexin A7 (human (endogenous in multiple myeloma cells)) (UniProt P20073).
T1 sequence: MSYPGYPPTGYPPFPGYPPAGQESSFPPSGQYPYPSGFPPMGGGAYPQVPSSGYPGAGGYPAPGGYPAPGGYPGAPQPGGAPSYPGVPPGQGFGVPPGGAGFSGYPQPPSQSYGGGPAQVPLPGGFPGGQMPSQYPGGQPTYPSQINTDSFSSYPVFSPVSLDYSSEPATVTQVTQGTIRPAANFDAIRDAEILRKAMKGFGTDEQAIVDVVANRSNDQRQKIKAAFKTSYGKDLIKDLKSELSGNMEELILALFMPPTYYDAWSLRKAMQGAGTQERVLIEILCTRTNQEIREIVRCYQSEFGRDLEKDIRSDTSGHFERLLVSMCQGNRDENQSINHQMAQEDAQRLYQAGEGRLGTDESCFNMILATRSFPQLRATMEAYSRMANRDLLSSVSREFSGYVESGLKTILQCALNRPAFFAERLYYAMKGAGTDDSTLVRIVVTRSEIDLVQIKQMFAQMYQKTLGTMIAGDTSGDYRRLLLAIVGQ
The assay can be described thus: co-IP; whole cell extract of multiple myeloma cells in RIPA lysate with protease inhibitor; rabbit anti-ANXA-7 or rabbit anti-CDC5L antibody 4 h at 4 °C, protein A/G agarose beads 1 h at 4 °C; rabbit IgG as control; Western blot. A general note: Immunoblotting shows a protein as a band on a membrane.

Assay [2] deals with cell division cycle 5-like (human (endogenous in multiple myeloma cells)) (UniProt Q99459). The assay is described as above.

No constants are given. Whether binding was seen depends on the method and setting. Binding seen in cells or lysates may run through a third protein. Some entries that bind do so weakly or less than the wild type.

For the molecule “cell division cycle 5-like (from UniProt Q99459 1-802)”, the binding entry in assay [1] is recorded as “binds”.

B1: annexin A7 (protein, UniProt P20073 1-488)
chain: T1 sequence
Take B1: in assay [2], the binding entry is “binds”.
